According to patent US11311637 (dated 2022):

What was measured:
[1] = peptide synthesis; conditions: whole synthesis, RP-HPLC; run 1
[2] = peptide made by a vendor; conditions: whole synthesis, RP-HPLC; run 2

NOTA-Asp-Cha-Phe-(D)Ser-(D)Arg-Tyr-Leu-Trp-Ser-COOH
final HPLC purity [1]: >98%
final HPLC purity [2]: >97%
